# In patent US20230401449A1, “MEANS AND METHODS FOR CLASSIFYING MICROBES” (UNIVERSITÉ DE LAUSANNE, priority 2020, published 2023):
# System: Lake Geneva microbial community
# Assay: 14C-labeled substrate incorporation, biomass yield of lake water community
# Assay type: cell-based
# Conditions: 3 days incubation
smiles,measurement,setting,value
"Oc1ccccc1 [Phenol, phenol]",14C based biomass yield,substrate 0.1 mg/l as sole carbon source,0.135 ± 0.027 g/g
same,14C based biomass yield,substrate 1.0 mg/l as sole carbon source,0.151 ± 0.052 g/g
same,14C based biomass yield,substrate 10 mg/l as sole carbon source,0.166 ± 0.042 g/g
